According to patent publication US20250109127A1, “METHODS OF USE OF PHENOXYPROPYLAMINE COMPOUNDS TO TREAT DEPRESSION” (Minerva Neurosciences, Inc., priority 2013, published 2025):
Where “and” joins values, the source holds several entries; their conditions need not be identical. Identical values can stand only once. The source gives many values for each of these; only a part stands here.

Test system: dopamine release in the rat prefrontal cortex
Test: Microdialysis: dopamine release in prefrontal cortex after I.P. administration
Format: in vivo
Conditions: 3 mg/kg IP, per animal R#15,16,21,22,27,28,09,10
Procedure: The aim of the study was to evaluate, using microdialysis, the effects of an intraperitoneal (I.P.) administration in rats of three different doses of SON-117 on dopamine and its metabolites, serotonin and its metabolite (5-HIAA), and norepinephrine levels in prefrontal cortex.
Thirty-two adult male Wistar rats were used for the whole study (4 groups of eight animals planned for the study, Table 1).
Surgery was performed on rats weighing about 300 g at the beginning of the experiments. Rats were anaesthetized with Ketamine (50 mg/kg) & Xylazine (15 mg/kg) by intramuscular administration. The animals were placed in a stereotaxic apparatus in the flat-skull position at a constant setting of −3.3 mm between ear bars and the incisor bar. The animals were treated with a local anesthesic (xylocaine 1%, Astra Zeneca) and an analgesic (Temgesic, from Schering Plough, 0.05 mg/kg, s.c.). A rostrocaudal midline incision was made with a lancet to expose the dorsal skull surface. The “stereotaxic zero” was defined by the Bregma in accordance with Paxinos and Watson's atlas (1986). A hole was drilled in the skull with a drill and the meninges were pierced with a sterile needle to implant a CMA12 guide cannula which later received the dialysis probe.
Coordinates used for implanting guide cannula in prefrontal cortex from Bregma were anteroposterior 3.7 mm, mediolateral 0.8 mm, and dorsoventral −2 mm (top of the probe was at −5 mm). The guide cannula was fixed to the skull with two stainless steel screws (1.88 mm outside diameter) anchored. An application of dental cement was added. A plastic collar allowed each animal to be tethered to a Swivel assembly of the CMA 120 awake animal system. Following surgery, rats were kept in individual cages and allowed to recover for a minimum of 3-5 days before the experimentation. The rats were handled and put in plastic bowl for 10 min at least every day to habituate the animals to their new environment for the dialysis. An I.P. administration with saline was also performed every day.
Dialysis probes (CMA12/3 mm, membrane, 20 kD cut-off, Carnegie Medicine, Stockholm, Sweden), were carefully washed before inserting into the guide cannula. The wash was performed with the artificial cerebrospinal fluid (aCSF) medium (NaCl 147 mM, KCl 2.7 mM, CaCl2 1.2 mM, MgCl2 0.85 mM) at room temperature. The dialysis system was then equilibrated at 20° C. at a perfusion rate of 1 μl/min with a Carnegie pump (CMA100). All catheters (FEP tubing, internal volume of 1.2 μl/10 cm, and tubing adaptors) used for microdialysis were treated in the same conditions.
The probes duly prepared were inserted into the guide cannula and the CMA120 Swivel assembly secured to the animal using a plastic collar. Flow through the dialysis probe with aCSF was maintained at a rate of 1 μl/min during the whole experimentation. The first four fractions (corresponding to 2 hours) were discarded to avoid the effects of parenchymal disturbance and to ensure that an approximate steady-state level was reached. Fractions were then collected over a period of 8.5 h during which time the animals remained quiet. The dialysates were automatically collected with an autosampler (microfraction collector CMA 140, Carnegie Medicin) and stored at −80° C. until analysis. […] Perfusion was then maintained for 7 hours with aCSF. The dialysates (30 μl) were collected into 300 μl vials, transferred into dry ice and then kept frozen (−80° C.) until analysis. Frozen samples were shipped to a partner for analysis. At the end of the microdialysis study, a PBS with colored ink was perfused through the probe in order to visualize the dialyzed area.
Catecholamine assay: Concentrations of dopamine, DOPAC, HVA, 5-HIAA, 5-HT, and norepinephrin were determined for each sample by HPLC coupled with electrochemical detection.

**Q.** With `Cc1nnc(-c2cc3c(OC[C@@H](O)CN4CCC(c5ccc(Cl)c(Cl)c5)CC4)cccc3o2)o1.Cl` [SON117] as the compound, how does the “Dopamine release, individual animals” value (T0-T30 min) read?
**A.** 74.36 % of respective basal and 99.14 % of respective basal and 268.40 % of respective basal and 124.48 % of respective basal and 110.89 % of respective basal and 106.79 % of respective basal and 176.72 % of respective basal and 74.98 % of respective basal

**Q.** And the “Dopamine release, individual animals” value (T30-T1 h)?
**A.** 134.73 % of respective basal and 105.04 % of respective basal and 142.58 % of respective basal and 173.21 % of respective basal and 86.78 % of respective basal and 108.67 % of respective basal and 69.20 % of respective basal and 64.11 % of respective basal

**Q.** And the “Dopamine release, individual animals” value (T1 h 30-T2 h)?
**A.** 360.72 % of respective basal and 138.09 % of respective basal and 162.59 % of respective basal and 58.59 % of respective basal and 46.35 % of respective basal and 84.07 % of respective basal and 85.41 % of respective basal and 138.23 % of respective basal

**Q.** What about the “Dopamine release, individual animals” value (T1 h-T1 h 30) of the same compound?
**A.** 121.19 % of respective basal and 129.07 % of respective basal and 613.75 % of respective basal and 120.73 % of respective basal and 65.12 % of respective basal and 76.88 % of respective basal and 128.93 % of respective basal and 98.80 % of respective basal

**Q.** And the “Dopamine release, individual animals” value (T2 h 30-T3 h)?
**A.** 186.56 % of respective basal and 135.32 % of respective basal and 135.75 % of respective basal and 91.01 % of respective basal and 39.85 % of respective basal and 120.81 % of respective basal and 98.27 % of respective basal and 113.76 % of respective basal

**Q.** What about the “Dopamine release, individual animals” value (T2 h-T2 h 30) of the same compound?
**A.** 132.88 % of respective basal and 103.94 % of respective basal and 162.53 % of respective basal and 105.32 % of respective basal and 43.82 % of respective basal and 130.53 % of respective basal and 78.02 % of respective basal and 92.38 % of respective basal

**Q.** And the “Dopamine release, individual animals” value (T3 h 30-T4 h)?
**A.** 184.88 % of respective basal and 118.94 % of respective basal and 114.14 % of respective basal and 109.07 % of respective basal and 50.59 % of respective basal and 99.12 % of respective basal and 91.85 % of respective basal and 135.55 % of respective basal

**Q.** And the “Dopamine release, individual animals” value (T3 h-T3 h 30)?
**A.** 234.25 % of respective basal and 169.02 % of respective basal and 100.15 % of respective basal and 109.01 % of respective basal and 46.30 % of respective basal and 91.78 % of respective basal and 69.37 % of respective basal and 120.14 % of respective basal

**Q.** What about the “Dopamine release, individual animals” value (T4 h 30-T5 h) of the same compound?
**A.** 242.69 % of respective basal and 66.02 % of respective basal and 127.97 % of respective basal and 87.34 % of respective basal and 70.60 % of respective basal and 62.20 % of respective basal and 123.12 % of respective basal

**Q.** And the “Dopamine release, individual animals” value (T4 h-T4 h 30)?
**A.** 360.17 % of respective basal and 91.98 % of respective basal and 153.23 % of respective basal and 58.98 % of respective basal and 42.22 % of respective basal and 102.67 % of respective basal and 77.52 % of respective basal and 127.38 % of respective basal

**Q.** And the “Dopamine release, individual animals” value (T5 h 30-T6 h)?
**A.** 286.57 % of respective basal and 92.91 % of respective basal and 189.03 % of respective basal and 84.11 % of respective basal and 52.74 % of respective basal and 89.24 % of respective basal and 164.66 % of respective basal and 225.94 % of respective basal

**Q.** What about the “Dopamine release, individual animals” value (T5 h-T5 h 30) of the same compound?
**A.** 229.44 % of respective basal and 89.68 % of respective basal and 183.13 % of respective basal and 81.81 % of respective basal and 47.98 % of respective basal and 113.49 % of respective basal and 86.39 % of respective basal and 154.89 % of respective basal

**Q.** And the “Dopamine release, individual animals” value (T6 h 30-T7 h)?
**A.** 342.88 % of respective basal and 100.85 % of respective basal and 315.87 % of respective basal and 147.30 % of respective basal and 56.17 % of respective basal and 99.06 % of respective basal and 154.36 % of respective basal and 122.94 % of respective basal

**Q.** What about the “Dopamine release, individual animals” value (T6 h-T6 h 30) of the same compound?
**A.** 329.83 % of respective basal and 100.06 % of respective basal and 109.70 % of respective basal and 83.47 % of respective basal and 58.10 % of respective basal and 83.02 % of respective basal and 157.26 % of respective basal

**Q.** And the “Dopamine release, individual animals” value (T-30 min-T0 (before administration))?
**A.** 72.70 % of respective basal and 96.12 % of respective basal and 125.71 % of respective basal and 118.20 % of respective basal and 102.57 % of respective basal and 94.02 % of respective basal and 62.49 % of respective basal and 97.39 % of respective basal

**Q.** And the “Dopamine release, individual animals” value (T-1 h 30-T-1 h (before administration))?
**A.** 110.19 % of respective basal and 94.95 % of respective basal and 106.72 % of respective basal and 64.60 % of respective basal and 90.89 % of respective basal and 104.64 % of respective basal and 150.73 % of respective basal and 112.56 % of respective basal

**Q.** What about the “Dopamine release, individual animals” value (T-1 h-T-30 min (before administration)) of the same compound?
**A.** 112.15 % of respective basal and 110.05 % of respective basal and 69.36 % of respective basal and 116.82 % of respective basal and 106.45 % of respective basal and 101.44 % of respective basal and 90.31 % of respective basal and 87.76 % of respective basal
